Test results reported in patent publication EP0004516A2, “Pharmaceutical compositions active on the gastro-intestinal motricity” (SCIENCE UNION ET Cie SOCIETE FRANCAISE DE RECHERCHE MEDICALE, priority 1978, dated 1979).

Test system: médiateurs chimiques cérébraux
Settings: in vivo

SMILES: CN1c2ccccc2C(NCCCCCCC(=O)O)c2ccc(Cl)cc2S1(=O)=O (racemic) [principe actif, acide 7-[(3-chloro 6-méthyl 5,5-dioxo 6,11-dihydrodibenzo (c,f)thiazepin 1,2-11-yl)amino] heptanoique]
- métabolisme de la dopamine: accélération
- sérotonine: baisse
- taux d'acétylcholine cérébrale: augmentation
